The results in this text go back to PMC8500422.

The target in test [1] is T1, EGFP-fused BROMI(157–1,298) (human) (UniProt Q96NH3).
T1 sequence: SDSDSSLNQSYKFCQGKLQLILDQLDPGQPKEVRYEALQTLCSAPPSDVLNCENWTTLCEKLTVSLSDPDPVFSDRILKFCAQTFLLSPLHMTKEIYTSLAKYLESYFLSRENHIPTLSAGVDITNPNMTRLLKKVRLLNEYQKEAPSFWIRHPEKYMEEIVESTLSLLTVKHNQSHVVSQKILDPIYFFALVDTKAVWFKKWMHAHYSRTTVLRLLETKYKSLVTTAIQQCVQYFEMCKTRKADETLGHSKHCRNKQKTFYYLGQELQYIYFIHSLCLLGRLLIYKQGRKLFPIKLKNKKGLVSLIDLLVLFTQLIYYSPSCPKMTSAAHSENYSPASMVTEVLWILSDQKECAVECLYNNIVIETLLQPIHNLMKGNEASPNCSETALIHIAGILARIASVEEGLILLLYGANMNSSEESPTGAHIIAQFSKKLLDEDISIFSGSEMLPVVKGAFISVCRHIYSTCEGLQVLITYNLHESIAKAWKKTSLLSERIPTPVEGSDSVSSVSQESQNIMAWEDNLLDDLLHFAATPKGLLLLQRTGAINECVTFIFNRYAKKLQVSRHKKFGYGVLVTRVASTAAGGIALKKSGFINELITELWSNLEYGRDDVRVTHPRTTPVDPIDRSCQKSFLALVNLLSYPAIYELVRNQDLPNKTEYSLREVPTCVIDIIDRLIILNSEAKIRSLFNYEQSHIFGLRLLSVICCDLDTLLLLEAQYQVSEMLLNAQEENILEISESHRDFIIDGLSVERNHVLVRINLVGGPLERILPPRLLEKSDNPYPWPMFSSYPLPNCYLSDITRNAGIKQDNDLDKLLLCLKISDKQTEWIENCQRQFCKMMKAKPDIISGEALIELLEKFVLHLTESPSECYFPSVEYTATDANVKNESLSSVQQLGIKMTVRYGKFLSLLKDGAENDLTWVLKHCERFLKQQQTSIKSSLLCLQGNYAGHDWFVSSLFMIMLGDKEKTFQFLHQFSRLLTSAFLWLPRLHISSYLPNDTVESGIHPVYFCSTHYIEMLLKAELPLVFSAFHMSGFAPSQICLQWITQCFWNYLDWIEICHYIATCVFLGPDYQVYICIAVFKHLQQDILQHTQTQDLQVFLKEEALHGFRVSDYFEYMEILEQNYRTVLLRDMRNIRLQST
In words: co-IP; the beads of the VIP assay (EGFP-fused protein precipitated with GST-tagged anti-GFP Nb from HEK293T lysates) subjected to SDS-PAGE and immunoblotting with anti-mChe or anti-GFP antibody.

Test [2] addresses T2, EGFP-fused BROMI(243–1,298) (human) (UniProt Q96NH3).
T2 sequence: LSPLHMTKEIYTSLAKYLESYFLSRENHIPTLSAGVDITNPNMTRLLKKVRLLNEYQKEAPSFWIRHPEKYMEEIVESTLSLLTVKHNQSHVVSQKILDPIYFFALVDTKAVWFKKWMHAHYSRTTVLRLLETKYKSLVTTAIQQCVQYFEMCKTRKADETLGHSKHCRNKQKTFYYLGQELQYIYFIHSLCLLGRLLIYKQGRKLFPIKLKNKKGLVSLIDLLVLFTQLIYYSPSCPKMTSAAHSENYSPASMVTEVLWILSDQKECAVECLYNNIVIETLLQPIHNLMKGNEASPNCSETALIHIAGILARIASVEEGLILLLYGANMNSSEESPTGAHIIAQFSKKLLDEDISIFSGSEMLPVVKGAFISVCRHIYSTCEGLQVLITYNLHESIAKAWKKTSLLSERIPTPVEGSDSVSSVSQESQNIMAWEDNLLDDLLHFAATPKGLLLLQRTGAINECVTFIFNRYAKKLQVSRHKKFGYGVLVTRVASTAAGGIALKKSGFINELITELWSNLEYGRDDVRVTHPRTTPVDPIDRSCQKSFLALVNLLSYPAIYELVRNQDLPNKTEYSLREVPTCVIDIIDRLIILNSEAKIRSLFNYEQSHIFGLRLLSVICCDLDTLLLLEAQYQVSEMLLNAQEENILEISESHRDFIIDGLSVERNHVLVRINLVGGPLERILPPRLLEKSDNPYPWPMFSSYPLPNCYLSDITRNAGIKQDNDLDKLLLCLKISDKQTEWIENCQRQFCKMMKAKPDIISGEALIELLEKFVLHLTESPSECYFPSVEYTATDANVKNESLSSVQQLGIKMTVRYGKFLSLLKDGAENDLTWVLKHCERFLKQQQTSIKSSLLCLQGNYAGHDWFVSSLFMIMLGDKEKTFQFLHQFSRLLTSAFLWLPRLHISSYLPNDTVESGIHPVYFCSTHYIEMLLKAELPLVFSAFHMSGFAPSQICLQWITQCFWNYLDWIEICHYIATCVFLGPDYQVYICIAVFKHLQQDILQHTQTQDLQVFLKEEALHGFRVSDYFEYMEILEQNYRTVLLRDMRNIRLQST
The description is as above.

Results are given in words; binding and its absence hold for the method and conditions named. Binding seen in cells or lysates may run through a third protein. Some binding calls cover weakened binding; strength is not graded here. Sequences can lack the tags named with a protein.

Turning to CCRK-mChe (from UniProt Q8IZL9-1 1-346), the binding entry in test [1] and in test [2] was “binds” each time.
